Values from PubChem BioAssay AID1053208 (Peter MacCallum Cancer Centre, 2014)

Assay: 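Find knock-downs that sensitise mouse osteosarcoma cells to doxorubicin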 (primary screen)
System: mouse osteosarcoma cells, early-passage culture from an engineered mouse model of fibroblastic bone tumour
Knock-down reagent: siRNA pool against mouse genes, 40 nM
Timing: about 120 h (48 h before drug, then 72 h with drug)
Challenge: doxorubicin 100 nM for 72 h, roughly 30-40% inhibitory dose
Detection: 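Luminescent ATP signal taken as viability with or without 100 nM doxorubicin for 72 h; mean of two wells set against non-targeting siRNA and turned into robust z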
Scale: viability z-score with doxorubicin and doxorubicin viability vs non-targeting: higher = more viable cells under doxorubicin; viability z-score without drug: higher = more viable cells with knock-down alone; z-score of drug to no-drug ratio: higher = less drug sensitisation by knock-down
Active means: 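a pool counts as active when its viability z-score with doxorubicin is -2 or below and its z-score without drug lies between -2 and 2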
Shown is an unselected part of about 17,000 deposited reagents. 788 of all reagents (4.7%) count as active. 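Calls rest on z-score classes alone; an extra cut-off of viability at most 70% of control was not applied to them.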 A number with no mark means an inactive call. The numbers tell different reagents against one gene apart.

Target gene | reagent no. | combined z-score class | viability z-score with doxorubicin | viability z-score without drug | z-score of drug to no-drug ratio | doxorubicin viability vs non-targeting
Or52b1 | 1 | no change with or without drug | -1.46 | -1.85 | -0.22 | 0.81
Esd | 1 | no change with or without drug | -1.12 | 0.51 | -1.35 | 0.84
Fam187b | 1 | low cell count with doxorubicin only (active) | -2.59 | -0.51 | -2.36 | 0.71
Hs1bp3 | 1 | no change with or without drug | -0.22 | 1.69 | -1.12 | 0.92
Muc20 | 1 | low cell count with and without drug | -2.25 | -2.19 | -0.9 | 0.74
Stambpl1 | 1 | no change with or without drug | 0 | 0.84 | -0.45 | 0.94
Slitrk3 | 1 | no change with or without drug | 0.67 | -0.51 | 1.24 | 1
Flad1 | 1 | no change with or without drug | -0.45 | -0.84 | 0.22 | 0.9
Aurkaip1 | 1 | low cell count without drug only | 0.22 | -2.02 | 2.02 | 0.96
Gmps | 1 | no change with or without drug | 0.56 | -0.84 | 1.35 | 0.99
Slc22a5 | 1 | no change with or without drug | -0.9 | 0.17 | -0.9 | 0.86
Alyref | 1 | low cell count with doxorubicin only (active) | -2.02 | 0 | -2.02 | 0.76
Oxct2b | 1 | no change with or without drug | -1.35 | -0.84 | -0.79 | 0.82
Drc10 | 1 | no change with or without drug | -1.57 | -0.17 | -1.46 | 0.8
Sbf2 | 1 | no change with or without drug | -1.12 | -0.17 | -1.01 | 0.84
Mtpn | 1 | no change with or without drug | 1.01 | 0.84 | 0.56 | 1.03
Oasl1 | 1 | no change with or without drug | -0.22 | 1.01 | -0.79 | 0.92
Tcf7 | 1 | high cell count without drug only | 0.34 | 3.54 | -1.57 | 0.97
Cldn2 | 1 | no change with or without drug | 1.12 | 1.01 | 0.56 | 1.04
Pxk | 1 | no change with or without drug | -1.12 | -1.01 | -0.45 | 0.84
Fhl3 | 1 | no change with or without drug | -0.22 | -1.52 | 1.01 | 0.92
Ypel1 | 1 | no change with or without drug | 0.11 | 1.52 | -0.79 | 0.95
Scd2 | 1 | no change with or without drug | 0.34 | -0.51 | 0.79 | 0.97
Aire | 1 | no change with or without drug | -1.46 | -0.51 | -1.12 | 0.81
Camkv | 1 | no change with or without drug | 0 | -0.51 | 0.45 | 0.94
Nprl3 | 1 | no change with or without drug | -1.12 | 0.84 | -1.57 | 0.84
Mus81 | 1 | no change with or without drug | -0.22 | 0 | -0.11 | 0.92
Tshb | 1 | no change with or without drug | -0.22 | 0.34 | -0.34 | 0.92
Or5ae2 | 1 | no change with or without drug | 1.01 | -0.51 | 1.57 | 1.03
Abcb4 | 1 | no change with or without drug | 0.22 | 1.01 | -0.34 | 0.96
Slc35f1 | 1 | low cell count with doxorubicin only (active) | -2.02 | -0.17 | -1.91 | 0.76

Targets listed so far whose gene name starts with A or a:
Target gene | reagent no. | combined z-score class | viability z-score with doxorubicin | viability z-score without drug | z-score of drug to no-drug ratio | doxorubicin viability vs non-targeting
Aurkaip1 | 1 | low cell count without drug only | 0.22 | -2.02 | 2.02 | 0.96
Alyref | 1 | low cell count with doxorubicin only (active) | -2.02 | 0 | -2.02 | 0.76
Aire | 1 | no change with or without drug | -1.46 | -0.51 | -1.12 | 0.81
Abcb4 | 1 | no change with or without drug | 0.22 | 1.01 | -0.34 | 0.96

Next entries:
Target gene | reagent no. | combined z-score class | viability z-score with doxorubicin | viability z-score without drug | z-score of drug to no-drug ratio | doxorubicin viability vs non-targeting
A730045E13Rik | 1 | no change with or without drug | -0.45 | -0.34 | -0.11 | 0.9
Bspry | 1 | low cell count with doxorubicin only (active) | -2.02 | 0.84 | -2.47 | 0.76
Defb11 | 1 | no change with or without drug | 1.01 | 0 | 1.12 | 1.03
Ctbp1 | 1 | no change with or without drug | 0.79 | -0.51 | 1.35 | 1.01
Unc45a | 1 | no change with or without drug | -0.22 | -0.67 | 0.34 | 0.92
Rab21 | 1 | no change with or without drug | -1.12 | 0 | -1.12 | 0.84
Acsl6 | 1 | no change with or without drug | -0.9 | -0.34 | -0.67 | 0.86
Acsf3 | 1 | no change with or without drug | -0.56 | -0.51 | -0.11 | 0.89
Mief1 | 1 | no change with or without drug | -0.45 | 0 | -0.34 | 0.9
Tbck | 1 | no change with or without drug | -0.22 | 0.51 | -0.45 | 0.92
Tbck | 2 | no change with or without drug | -0.45 | -1.01 | 0.34 | 0.9
Trappc2l | 1 | no change with or without drug | 0.22 | 1.85 | -0.79 | 0.96
9430077A04Rik | 1 | low cell count with doxorubicin only (active) | -2.47 | 0.84 | -2.92 | 0.72
Cfap184 | 1 | no change with or without drug | 0.34 | 0.51 | 0.11 | 0.97
Or5bh3 | 1 | no change with or without drug | -0.34 | 0.17 | -0.34 | 0.91
Cyp2b10 | 1 | no change with or without drug | 0.22 | 1.01 | -0.34 | 0.96
Ufl1 | 1 | no change with or without drug | -0.67 | 1.18 | -1.35 | 0.88
Psma6 | 1 | low cell count with and without drug | -6.07 | -5.9 | -3.48 | 0.4
Arpp21 | 1 | no change with or without drug | -0.67 | 0.84 | -1.12 | 0.88
Arpp21 | 2 | no change with or without drug | 1.57 | 1.18 | 0.9 | 1.08
